Results as given in patent US20110251090A1.
These are yes or no findings as the source states them, for the method shown. In cells and extracts the contact can be indirect. Some results given as binding are weak or reduced against the parent protein; the word gives no strength. For part of these data: Sequences can lack the tags named with a protein.

By UniProt entry, the sequences of proteins in these tests, tags left out.
UniProt Q9H4L4: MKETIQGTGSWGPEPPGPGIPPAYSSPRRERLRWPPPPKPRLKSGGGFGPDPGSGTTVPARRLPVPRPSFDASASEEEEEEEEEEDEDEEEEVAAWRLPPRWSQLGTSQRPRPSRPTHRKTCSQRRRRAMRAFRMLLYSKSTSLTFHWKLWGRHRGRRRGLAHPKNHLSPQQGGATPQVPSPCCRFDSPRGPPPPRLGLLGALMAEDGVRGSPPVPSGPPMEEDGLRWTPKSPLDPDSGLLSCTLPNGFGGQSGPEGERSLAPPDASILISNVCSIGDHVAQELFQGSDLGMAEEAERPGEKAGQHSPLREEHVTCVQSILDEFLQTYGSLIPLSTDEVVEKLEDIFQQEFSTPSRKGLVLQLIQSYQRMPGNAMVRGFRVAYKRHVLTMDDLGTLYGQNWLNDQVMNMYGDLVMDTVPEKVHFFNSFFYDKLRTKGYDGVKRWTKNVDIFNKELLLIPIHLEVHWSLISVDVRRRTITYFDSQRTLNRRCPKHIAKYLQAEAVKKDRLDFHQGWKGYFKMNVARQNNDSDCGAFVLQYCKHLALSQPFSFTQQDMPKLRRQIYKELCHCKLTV
UniProt Q8IZL8: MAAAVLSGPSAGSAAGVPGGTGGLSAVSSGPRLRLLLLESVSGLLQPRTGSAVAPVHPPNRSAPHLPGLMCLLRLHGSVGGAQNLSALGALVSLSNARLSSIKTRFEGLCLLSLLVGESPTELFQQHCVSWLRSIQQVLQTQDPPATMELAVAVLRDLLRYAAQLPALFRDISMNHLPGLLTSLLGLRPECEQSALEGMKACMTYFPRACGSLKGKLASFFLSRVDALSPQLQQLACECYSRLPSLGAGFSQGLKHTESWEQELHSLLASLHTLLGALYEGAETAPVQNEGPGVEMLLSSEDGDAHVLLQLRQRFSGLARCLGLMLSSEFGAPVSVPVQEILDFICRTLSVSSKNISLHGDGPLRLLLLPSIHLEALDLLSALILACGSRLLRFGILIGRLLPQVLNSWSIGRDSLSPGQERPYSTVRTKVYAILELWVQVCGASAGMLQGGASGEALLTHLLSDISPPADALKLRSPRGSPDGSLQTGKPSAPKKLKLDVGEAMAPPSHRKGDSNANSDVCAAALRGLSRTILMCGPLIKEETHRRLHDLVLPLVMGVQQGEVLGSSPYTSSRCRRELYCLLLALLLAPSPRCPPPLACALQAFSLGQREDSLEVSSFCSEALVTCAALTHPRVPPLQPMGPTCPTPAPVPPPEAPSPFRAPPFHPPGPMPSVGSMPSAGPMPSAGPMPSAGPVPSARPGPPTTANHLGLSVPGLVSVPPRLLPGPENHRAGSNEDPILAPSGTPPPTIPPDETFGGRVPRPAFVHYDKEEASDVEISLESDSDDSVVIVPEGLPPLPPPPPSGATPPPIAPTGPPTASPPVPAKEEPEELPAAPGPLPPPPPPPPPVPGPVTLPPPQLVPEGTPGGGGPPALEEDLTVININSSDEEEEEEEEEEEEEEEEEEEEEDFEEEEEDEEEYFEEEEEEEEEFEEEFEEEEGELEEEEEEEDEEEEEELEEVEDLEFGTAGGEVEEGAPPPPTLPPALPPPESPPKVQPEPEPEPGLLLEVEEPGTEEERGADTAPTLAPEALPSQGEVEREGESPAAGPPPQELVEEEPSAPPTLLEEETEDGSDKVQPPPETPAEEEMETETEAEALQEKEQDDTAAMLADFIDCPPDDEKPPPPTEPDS

Experiments:
SENP3-Flag (human) [1] = molecular target: SENP3-Flag (human) (UniProt Q9H4L4); assay: co-immunoprecipitation with anti-HA antibody (PELP1-HA) from cells co-transfected with wild-type or enzyme-dead (E906A) TTLL4 (FIG. 9B upper)
SENP3-Flag (human) [2] = molecular target: SENP3-Flag (human) (UniProt Q9H4L4); assay: co-immunoprecipitation from co-transfected COS-7 cells (FIG. 8B)
SENP3-Flag (human) [3] = molecular target: SENP3-Flag (human) (UniProt Q9H4L4); assay: co-immunoprecipitation with TTLL4 over-expression (FIG. 9B upper)
LAS1L-Flag (human) [4] = molecular target: T1, LAS1L-Flag (human) (UniProt Q9Y4W2); assay: co-immunoprecipitation (FIG. 8)
T1 sequence: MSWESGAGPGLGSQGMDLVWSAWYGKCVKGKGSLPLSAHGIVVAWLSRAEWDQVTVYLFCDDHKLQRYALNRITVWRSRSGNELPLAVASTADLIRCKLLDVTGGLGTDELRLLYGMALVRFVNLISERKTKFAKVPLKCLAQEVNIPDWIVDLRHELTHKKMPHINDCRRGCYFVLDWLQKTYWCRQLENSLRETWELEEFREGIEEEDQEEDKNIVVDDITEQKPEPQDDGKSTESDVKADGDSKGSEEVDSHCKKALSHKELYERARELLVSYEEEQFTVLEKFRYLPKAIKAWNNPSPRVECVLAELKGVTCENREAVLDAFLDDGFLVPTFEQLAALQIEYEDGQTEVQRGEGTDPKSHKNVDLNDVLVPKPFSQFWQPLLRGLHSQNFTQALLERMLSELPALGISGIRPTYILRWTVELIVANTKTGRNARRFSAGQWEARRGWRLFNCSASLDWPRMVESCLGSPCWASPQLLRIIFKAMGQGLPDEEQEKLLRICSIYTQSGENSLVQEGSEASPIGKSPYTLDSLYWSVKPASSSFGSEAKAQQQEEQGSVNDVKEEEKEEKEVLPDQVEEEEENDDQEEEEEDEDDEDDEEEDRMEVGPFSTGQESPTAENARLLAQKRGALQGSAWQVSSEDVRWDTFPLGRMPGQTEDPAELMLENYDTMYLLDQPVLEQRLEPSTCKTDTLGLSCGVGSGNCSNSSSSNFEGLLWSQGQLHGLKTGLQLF

SENP3-Flag (human) [5] = molecular target: SENP3-Flag (human) (UniProt Q9H4L4); assay: co-immunoprecipitation (FIG. 8)
LAS1L-Flag (human) [6] = molecular target: T1, LAS1L-Flag (human); assay: co-immunoprecipitation from co-transfected COS-7 cells, western blot with anti-HA antibody (FIG. 8A left)
SENP3-Flag (human) [7] = molecular target: SENP3-Flag (human) (UniProt Q9H4L4); assay: co-immunoprecipitation from COS-7 cells co-transfected with PELP1-HA and SENP3-Flag vectors (FIG. 8B)
LAS1L-Flag (human) [8] = molecular target: T1, LAS1L-Flag (human); assay: co-immunoprecipitation with anti-HA antibody (PELP1-HA) from cells co-transfected with wild-type or enzyme-dead (E906A) TTLL4 (FIG. 9A upper)
LAS1L-Flag (human) [9] = molecular target: T1, LAS1L-Flag (human); assay: co-immunoprecipitation with TTLL4 over-expression (FIG. 9A upper)

- binding (SENP3-Flag (human) [1]): binds
- binding (SENP3-Flag (human) [2]): binds
- binding (SENP3-Flag (human) [3]): binds
- binding (LAS1L-Flag (human) [4]): binds
- binding (SENP3-Flag (human) [5]): binds
- binding (LAS1L-Flag (human) [6]): binds
- binding (SENP3-Flag (human) [7]): binds
- binding (LAS1L-Flag (human) [8]): binds
- binding (LAS1L-Flag (human) [9]): binds
Substance: PELP1-HA (from UniProt Q8IZL8 1-1130)
